Literature values, collected in PMC6968775, “Assessment of contribution of BCRP to intestinal absorption of various drugs using portal‐systemic blood concentration difference model in mice” (Pharmacology Research & Perspectives, 2020).

How the values were obtained:
[1] = test system: P‐gp; conditions: Caco‐2 permeability study; unpublished data; ref Fujita et al, manuscript in preparation; cited from earlier work
[2] = test system: BCRP; conditions: Caco‐2 permeability study; ref (10); Kawahara et al, manuscript in revision; cited from earlier work

SMILES: O=C(O)c1cn(C2CC2)c2cc(N3CCNCC3)c(F)cc2c1=O [ciprofloxacin, Ciprofloxacin]
- AQp‐gp in vitro (Caco‐2) [1]: 0.13
- AQbcrp in vitro (Caco‐2) [2]: 0.03
